The values that follow come from patent EP3843702B1, “IMMEDIATE RELEASE FIXED-DOSE COMBINATION OF MEMANTINE AND DONEPEZIL” (Tecnimede, Sociedade Técnico-Medicinal, SA, priority 2019, dated 2020).

The series can be described thus: Bioequivalence of the fixed-dose composition to EBIXA and ARICEPT (plasma Cmax and AUC).
The mark [1] stands for this setting: plasma donepezil, composition of the present disclosure vs reference ARICEPT.

As to `COc1cc2c(cc1OC)C(=O)C(CC1CCN(Cc3ccccc3)CC1)C2` (racemic) [Donepezil 10mg, (RS)-2-[(1-benzyl-4-piperidyl)methyl]-5,6-dimethoxy-2,3-dihydroinden-1-one], the “bioequivalence to the mono-products” value (in the presence of Mannitol, immediate release fixed-dose combination composition) was “bioequivalent”. For the same molecule, under setting [1], the “AUC 0→72 Point Estimate [%]” value is recorded as 101.62% and the “Cmax Point Estimate [%]” value is given as 100.94%.
